# Assay results from patent US4348410A, “Cyclohexane carboxylic acid derivatives” (Nippon Chemiphar Co., Ltd., priority 1979, dated 1982).
# Structures can show the parent of a compound that is named as a salt.
# Tested on: gastric secretion
# Test: Influence to the gastric secretion (pylorus ligation)
# Format: in vivo, Male Sprague-Dawley strain rats
# Conditions: 12.5 mg/kg i.p.
# Protocol: Male Sprague-Dawley strain rats, weighing 160-180 g were deprived of food but allowed free access to water for 20 hours prior to experiment. […] The test drug was given intraperitoneally immediately after pylorus ligation. The rats were sacrificed 3, 6 and 12 hours later and the stomachs removed. The gastric juice was collected and analyzed for volume. Then the gastric juice was centrifuged at 1300 g for 10 minutes at room temperature to give the supernatant. The total acidity and peptic activity of the supernatant were determined. Total acidity was determined by titrating with 0.01 N NaOH. […] Total acidity is shown as the titration volume (ml) and peptic activity is shown as the corresponding weight (mg) to crystal pepsin.
smiles,measurement,setting,value
"CN1[C@@H]2CC[C@H]1C[C@@H](OC(=O)C(CO)c1ccccc1)C2 (some centres unmarked) [Compound B, atropine sulfate, reference compound]",Titratable Acid Output,3 hours,17.7 ± 7.7 μEg
same,Titratable Acid Output % change,3 hours,78.6%
same,Titratable Acid Output,6 hours,171.6 ± 50.0 μEq
same,Titratable Acid Output % change,6 hours,55.1%
same,Titratable Acid Output,12 hours,617.1 ± 48.0 μEq
